From publication PMC6467405
No constants are given. Whether binding was seen depends on the method and setting. Binding seen in cells or lysates may run through a third protein. Some binding calls cover weakened binding; strength is not graded here.

By UniProt entry, the sequences of proteins in these tests, tags left out. Residues count along the entry.
UniProt Q02413, residues 50-1049: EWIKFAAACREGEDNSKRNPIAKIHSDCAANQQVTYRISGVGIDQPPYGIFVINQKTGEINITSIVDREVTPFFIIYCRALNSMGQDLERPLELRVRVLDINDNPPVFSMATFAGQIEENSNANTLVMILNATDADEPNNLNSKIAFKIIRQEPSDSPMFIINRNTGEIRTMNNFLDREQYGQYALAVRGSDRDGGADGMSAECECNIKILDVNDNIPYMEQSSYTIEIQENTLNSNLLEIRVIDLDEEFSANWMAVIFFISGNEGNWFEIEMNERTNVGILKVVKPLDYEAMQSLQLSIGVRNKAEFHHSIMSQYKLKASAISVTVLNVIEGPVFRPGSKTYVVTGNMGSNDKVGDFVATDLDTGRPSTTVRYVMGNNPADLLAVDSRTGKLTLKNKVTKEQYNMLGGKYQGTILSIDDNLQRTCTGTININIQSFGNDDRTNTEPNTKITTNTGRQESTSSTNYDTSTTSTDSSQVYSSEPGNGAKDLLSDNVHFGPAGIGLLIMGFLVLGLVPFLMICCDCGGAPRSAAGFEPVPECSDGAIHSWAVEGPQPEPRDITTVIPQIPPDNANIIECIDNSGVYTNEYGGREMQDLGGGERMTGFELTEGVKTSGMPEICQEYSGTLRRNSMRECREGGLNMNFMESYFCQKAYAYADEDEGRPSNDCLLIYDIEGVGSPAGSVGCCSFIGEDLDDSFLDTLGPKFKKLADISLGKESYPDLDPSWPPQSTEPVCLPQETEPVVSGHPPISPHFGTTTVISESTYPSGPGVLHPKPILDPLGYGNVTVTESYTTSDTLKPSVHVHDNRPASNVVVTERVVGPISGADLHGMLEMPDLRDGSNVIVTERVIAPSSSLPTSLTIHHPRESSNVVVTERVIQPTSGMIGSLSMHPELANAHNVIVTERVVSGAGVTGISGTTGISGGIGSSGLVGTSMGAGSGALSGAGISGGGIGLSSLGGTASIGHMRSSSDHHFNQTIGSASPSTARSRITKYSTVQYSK

Target: desmoglein1 (Dsg1) (human (endogenous in Neoderm-E skin equivalent)) (UniProt Q02413)
Assay: co-IP; lysate (RIPA buffer, EDTA-free protease inhibitors) of reconstructed human skin equivalent Neoderm-E, treated topically with 10% serine for 3 days or untreated; precipitated with anti-Dsg1 antibody and protein G sepharose, 4 °C; blot with anti-Dsc1; three repeats

binding: binds
B1: desmocollin1 (Dsc1) (protein, UniProt Q08554 135-894)
chain: RWAPIPASLMENSLGPFPQHVQQIQSDAAQNYTIFYSISGPGVDKEPFNLFYIEKDTGDIFCTRSIDREKYEQFALYGYATTADGYAPEYPLPLIIKIEDDNDNAPYFEHRVTIFTVPENCRSGTSVGKVTATDLDEPDTLHTRLKYKILQQIPDHPKHFSIHPDTGVITTTTPFLDREKCDTYQLIMEVRDMGGQPFGLFNTGTITISLEDENDNPPSFTETSYVTEVEENRIDVEILRMKVQDQDLPNTPHSKAVYKILQGNENGNFIISTDPNTNEGVLCVVKPLNYEVNRQVILQVGVINEAQFSKAASSQTPTMCTTTVTVKIIDSDEGPECHPPVKVIQSQDGFPAGQELLGYKALDPEISSGEGLRYQKLGDEDNWFEINQHTGDLRTLKVLDRESKFVKNNQYNISVVAVDAVGRSCTGTLVVHLDDYNDHAPQIDKEVTICQNNEDFAVLKPVDPDGPENGPPFQFFLDNSASKNWNIEEKDGKTAILRQRQNLDYNYYSVPIQIKDRHGLVATHMLTVRVCDCSTPSECRMKDKSTRDVRPNVILGRWAILAMVLGSVLLLCILFTCFCVTAKRTVKKCFPEDIAQQNLIVSNTEGPGEEVTEANIRLPMQTSNICDTSMSVGTVGGQGIKTQQSFEMVKGGYTLDSNKGGGHQTLESVKGVGQGDTGRYAYTDWQSFTQPRLGEKVYLCGQDEEHKHCEDYVCSYNYEGKGSLAGSVGCCSDRQEEEGLEFLDHLEPKFRTLAKTCIKK
